# According to PubChem BioAssay AID720504 (National Center for Advancing Translational Sciences (NCATS), 2013):
# The chains behind the UniProt entries cited, without tags or fusion partners.
# UniProt P53350, whole entry, looked up: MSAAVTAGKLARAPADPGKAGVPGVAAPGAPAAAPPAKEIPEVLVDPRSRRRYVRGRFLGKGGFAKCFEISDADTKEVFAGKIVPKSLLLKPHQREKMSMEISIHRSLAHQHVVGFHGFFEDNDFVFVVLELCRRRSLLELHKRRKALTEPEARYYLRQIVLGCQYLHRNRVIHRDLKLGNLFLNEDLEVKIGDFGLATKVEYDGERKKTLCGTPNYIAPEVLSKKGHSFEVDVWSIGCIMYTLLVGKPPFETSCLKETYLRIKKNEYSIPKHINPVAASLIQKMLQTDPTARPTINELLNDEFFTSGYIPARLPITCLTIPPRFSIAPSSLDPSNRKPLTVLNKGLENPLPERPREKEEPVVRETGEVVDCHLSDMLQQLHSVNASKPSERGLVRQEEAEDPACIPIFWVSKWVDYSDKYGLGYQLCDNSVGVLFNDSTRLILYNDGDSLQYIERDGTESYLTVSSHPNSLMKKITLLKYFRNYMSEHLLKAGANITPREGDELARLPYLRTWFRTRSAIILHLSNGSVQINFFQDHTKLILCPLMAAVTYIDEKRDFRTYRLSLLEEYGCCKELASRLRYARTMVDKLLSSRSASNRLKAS
# Out of some 360,000 compounds screened, about 10,000 (2.8%) were called active. Inconclusive results, whose numbers are uncertain, are shown with a selection of clear calls. Calls follow the shape of the dose curve; as a rule, active = well fitted inhibition curve with a large enough effect; inconclusive = small, poorly fitted or top-dose-only effect; inactive = flat fitted curve, though single readings scatter. Potencies beside an inconclusive call are fits to weak or partial responses and may not hold up.
# Biological target: Serine/threonine-protein kinase PLK1 (Homo sapiens) (UniProt P53350)
# Test: qHTS for Inhibitors of PLK1-PDB (polo-like kinase 1 - polo-box domain): Primary Screen; also: nearly all actives have a fitted effect of over 65% in size; as to max response, negative = inhibition: series mostly up to about 57 µM
# Conditions: Plk1 PBD binding of FITC phosphopeptide, fluorescence polarization
# % is scaled to controls: 0 for no effect and ±100 for the full control effect; potency is read from the fitted curve at half-maximal effect.
SMILES,"max response, negative = inhibition",Potency
O=C(N/N=C/c1ccncc1)c1ccccc1,inactive: -10.3%,
Cn1c(SCC(=O)NCc2ccc3c(c2)OCO3)nnc1C1COc2ccccc2O1 (stereo unspecified),,"inconclusive: 26.7 µM [inhibitor, single point]"
CC(C)[C@@H]1N[C@]2(C(=O)Nc3ccccc32)[C@@H]2C(=O)N(c3cccc(C(F)(F)F)c3)C(=O)[C@@H]21,inactive: -2.34%,
CCCCN(C)CCNC(=S)Nc1ccc2nc(N3CCN(CC)CC3)cc(C)c2c1,inconclusive: -34.8% [inhibitor],
CC(C)C(c1nnnn1C(C)(C)C)N1CCN(c2cccc(Cl)c2)CC1 (stereo unspecified),,active: 2.99 µM
CCOC(=O)c1c(NC(=O)C2COc3ccccc3O2)sc2c1CC(C)(C)NC2(C)C (stereo unspecified),inactive: -0.262%,
N#C/C(=C\c1cccc([N+](=O)[O-])c1)C(=O)NCc1ccc(Cl)cc1,,"inconclusive: 2.99 µM [inhibitor, full curve]"
O=C(C[C@@H]1C[C@H]2c3cc(NC(=O)c4cccnc4)ccc3O[C@H]2[C@H](CO)O1)NCc1ccc(Oc2ccccc2)cc1,inactive: -9.1%,
COC(=O)C1C2CC3c4[nH]c5cc(OC)ccc5c4CCN3CC2CC(OC(=O)CC(C)=O)C1OC (stereo unspecified),inactive: 31.5%,
COCCN(Cc1cccs1)S(=O)(=O)c1ccc(-c2ccc(=O)[nH]n2)s1,,"inconclusive: 29.9 µM [inhibitor, partial curve]"
CC1(C)CC(=O)CC(C)(C)N1OC(=O)c1ccco1,,"inconclusive: 26.7 µM [inhibitor, single point]"
Cc1ccc(S(=O)(=O)N(C)C[C@@H]2Oc3ccc(NC(=O)Nc4cccc5ccccc45)cc3C(=O)N([C@H](C)CO)C[C@H]2C)cc1,inactive: 1.77%,
CC(=O)N(CCCCN1C(=O)c2ccccc2C1=O)c1ccc(C)cc1,,"inconclusive: 33.6 µM [inhibitor, partial curve]"
CCOc1ccc(CCNC(=O)c2ccc(CS(=O)Cc3cccc(Cl)c3)o2)cc1 (stereo unspecified),,active: 26.7 µM
CCCCC[C@H](O)/C=C/C1=C(CCCCCCC(=O)O)C(=O)CC1,,"inconclusive: 33.6 µM [inhibitor, partial curve]"
Cc1cc(C)cc(N=C2NC(=O)/C(=C/c3cccs3)S2)c1,inactive: -13.2%,
COC(=O)CCCC1=CC2=C(c3ccccc3)C(=O)C(C)(OC(=O)C3CCCC3)C(=O)C2=CN1Cc1ccc(OC)cc1 (stereo unspecified),,"inconclusive: 37.7 µM [inhibitor, single point]"
O=C(O)CCn1nnc(-c2ccccc2)n1,,active: 21.2 µM
CSc1nc2c(c(=O)[nH]c(=O)n2C)n1Cc1ccc(Cl)cc1,,active: 5.97 µM
O=C1Cc2cccc(=O)c(O)c2C(=O)O1,,"inconclusive: 26.7 µM [inhibitor, single point]"
CCOC(=O)N/N=C\c1ccc([N+](=O)[O-])s1,,"inconclusive: 21.2 µM [inhibitor, partial curve]"
O=C(O)CC/C(=C\c1ccc(N2CCCC2)c([N+](=O)[O-])c1)c1nc2ccccc2s1,,active: 33.6 µM
Cn1c(/C=C/c2ccc([N+](=O)[O-])o2)nc2ccccc2c1=O,,"inconclusive: 13.4 µM [inhibitor, partial curve]"

SMILES,"max response, negative = inhibition",Potency
Cc1ccc2c(C)c(C(=O)NCCN3CCOC3=O)oc2c1C,inactive: -8.51%,
COc1ccc(N2C(=O)/C(=C/N(C)C)NC2=S)cc1,inactive: -6.99%,
Cc1ccc2[nH]c3c(c2c1)CN(C(=O)CN(C)CC1OCCO1)CC3,inactive: -12.7%,
COc1ccccc1NC1=C(C)C(=O)CC1,,"inconclusive: 21.2 µM [inhibitor, partial curve]"
COc1ccccc1C(=O)N/C(=C/c1cccc([N+](=O)[O-])c1)C(=O)Nc1cccc(C(=O)O)c1,,active: 29.9 µM
CC(C)c1ccc(OCC(=O)NNC(=S)NC(=O)c2cccs2)c(Br)c1,,"inconclusive: 29.9 µM [inhibitor, partial curve]"
Cc1ccc(-c2cc(N)n[nH]2)cc1,inconclusive: -30.4% [inhibitor],
Nc1nccc(SCc2ccccc2)n1,inactive: 4.15%,
COc1cc(C2SCC(=O)N2CCN2CCCCC2)ccc1O (stereo unspecified),inactive: -10.9%,
Cc1ccc(C2C(C#N)=C(N)SC(N)=C2C#N)cc1,inactive: 33.3%,
CCC(=O)NC(c1ccc(C)cc1)c1cc([N+](=O)[O-])c2cccnc2c1O (stereo unspecified),inconclusive: -32.9% [inhibitor],
CCCn1c(N)c(C(=O)CSc2nnc(C3CC3)n2Cc2ccccc2)c(=O)n(C)c1=O,inactive: 2.14%,
CCCS(=O)(=O)c1c(S(=O)(=O)CCC)c2c3ccccc3ccn2c1C(=O)OC,inactive: -6.81%,
O=C(COC(=O)C1CC(=O)N(Cc2ccco2)C1)c1ccc(OC(=O)c2ccco2)cc1 (stereo unspecified),,"inconclusive: 21.2 µM [inhibitor, partial curve]"
CCCOc1ccc(-c2nc(=S)[nH][nH]2)cc1,,"inconclusive: 18.9 µM [inhibitor, partial curve]"
CSC1=NC(C)(C)C=C(/C=C/c2ccc(Cl)cc2Cl)N1,,"inconclusive: 33.6 µM [inhibitor, partial curve]"
Cc1ccc(-n2nc(C)c3c2OC(N)=C(C#N)C3c2ccncc2)cc1 (stereo unspecified),inactive: -3.64%,
O=S(=O)(Nc1ccc(N2CCOCC2)cc1)c1cc(Cl)ccc1Cl,inactive: -2.27%,
O=C(O)CCN1C(=O)C2C3CC(C2C1=O)C1C(c2ccccc2)c2sc(=O)n(-c4ccccc4)c2SC31 (stereo unspecified),,active: 42.3 µM
CCCCNC(=O)c1ccccc1NC(=O)c1ccccc1N(C)S(C)(=O)=O,,"inconclusive: 26.7 µM [inhibitor, partial curve]"
CC(C)OC(=O)N(C)C[C@H]1OCc2cn(nn2)CCCC(=O)N([C@H](C)CO)C[C@@H]1C,inactive: -16.6%,
COCCNC(=O)CSc1ncnc2sc(-c3ccccc3)cc12,,"inconclusive: 29.9 µM [inhibitor, single point]"
COc1ccc(Cl)c2sc(N(Cc3cccnc3)C(C)=O)nc12,inactive: 0.581%,

# In the list so far, these contain a COOH group:
SMILES,"max response, negative = inhibition",Potency
CCCCC[C@H](O)/C=C/C1=C(CCCCCCC(=O)O)C(=O)CC1,,"inconclusive: 33.6 µM [inhibitor, partial curve]"
O=C(O)CCn1nnc(-c2ccccc2)n1,,active: 21.2 µM
O=C(O)CC/C(=C\c1ccc(N2CCCC2)c([N+](=O)[O-])c1)c1nc2ccccc2s1,,active: 33.6 µM
COc1ccccc1C(=O)N/C(=C/c1cccc([N+](=O)[O-])c1)C(=O)Nc1cccc(C(=O)O)c1,,active: 29.9 µM
O=C(O)CCN1C(=O)C2C3CC(C2C1=O)C1C(c2ccccc2)c2sc(=O)n(-c4ccccc4)c2SC31 (stereo unspecified),,active: 42.3 µM
